Test results: patent US9623262B2, “Methods and systems for determining the distribution of radiation dose and response” (priority 2013, dated 2017)
Some entries share one result that the patent states for a list of compounds.

Tested on: V79 cells
Assay: Clonogenic survival assay after single-agent treatment
Details: two-component exponential survival curves

SMILES | concentration at which uptake slope, survival slope and σ begin to change (transition to second component)
COc1cccc2c1C(=O)c1c(O)c3c(c(O)c1C2=O)C[C@@](O)(C(=O)CO)C[C@@H]3O[C@H]1C[C@H](N)[C@H](O)[C@H](C)O1 [doxorubicin] | 1 to 2 µmol/L
COc1cccc2c1C(=O)c1c(O)c3c(c(O)c1C2=O)C[C@@](O)(C(C)=O)C[C@@H]3O[C@H]1C[C@H](N)[C@H](O)[C@H](C)O1 [daunomycin] | 1 to 2 µmol/L
